Test results reported in paper PMC3037357.
These are yes or no findings as the source states them, for the method shown. Binding seen in cells or lysates may run through a third protein. Some entries that bind do so weakly or less than the wild type.

The chains behind the UniProt entries cited, without tags or fusion partners.
UniProt Q12824: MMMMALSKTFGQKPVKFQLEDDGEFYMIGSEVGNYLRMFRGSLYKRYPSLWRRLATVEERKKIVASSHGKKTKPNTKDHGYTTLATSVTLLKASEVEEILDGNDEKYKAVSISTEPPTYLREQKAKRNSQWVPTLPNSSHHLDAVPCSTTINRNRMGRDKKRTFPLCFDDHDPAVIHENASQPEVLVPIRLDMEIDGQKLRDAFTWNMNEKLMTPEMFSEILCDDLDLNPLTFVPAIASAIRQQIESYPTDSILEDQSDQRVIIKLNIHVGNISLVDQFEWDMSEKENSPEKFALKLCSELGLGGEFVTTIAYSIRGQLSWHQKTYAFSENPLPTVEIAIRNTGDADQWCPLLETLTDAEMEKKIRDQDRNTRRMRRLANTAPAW
UniProt Q969G3: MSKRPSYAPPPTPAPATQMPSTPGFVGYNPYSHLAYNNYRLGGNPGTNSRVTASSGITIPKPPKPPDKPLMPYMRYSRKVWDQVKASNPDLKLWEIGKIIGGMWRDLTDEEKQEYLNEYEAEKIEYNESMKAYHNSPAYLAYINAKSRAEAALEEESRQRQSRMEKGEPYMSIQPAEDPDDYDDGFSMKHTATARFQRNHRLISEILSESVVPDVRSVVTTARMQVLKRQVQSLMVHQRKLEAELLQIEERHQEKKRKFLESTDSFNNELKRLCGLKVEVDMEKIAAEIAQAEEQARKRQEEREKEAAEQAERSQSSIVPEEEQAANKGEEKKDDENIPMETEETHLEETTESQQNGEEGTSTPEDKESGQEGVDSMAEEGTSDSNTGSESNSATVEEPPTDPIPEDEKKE

Molecular target: Flag-tagged INI1 expressed in HeLa S3 cells (human) (UniProt Q12824)
Assay: co-IP; affinity purification of the epitope-tagged SWI/SNF complex from nuclear extracts of HeLa S3 cells expressing Flag-tagged INI1; BAF57 found in the purified complex with α-BAF57 antibodies (immunoprecipitation and Western blot)

In the case of “BAF57/SMARCE1 (from UniProt Q969G3 1-411)”, the binding is reported as “binds”.
